# Results of single-concentration screens

By UniProt entry, the sequences of proteins in these tests, tags left out. Residues count along the entry.
UniProt P9WPC5, whole entry: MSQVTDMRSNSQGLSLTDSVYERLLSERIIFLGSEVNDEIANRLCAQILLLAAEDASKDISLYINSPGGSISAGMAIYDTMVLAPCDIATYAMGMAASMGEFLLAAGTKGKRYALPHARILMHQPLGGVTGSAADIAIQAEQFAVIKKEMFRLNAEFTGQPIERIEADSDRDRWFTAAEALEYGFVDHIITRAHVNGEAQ
UniProt P9WPC3, whole entry partner: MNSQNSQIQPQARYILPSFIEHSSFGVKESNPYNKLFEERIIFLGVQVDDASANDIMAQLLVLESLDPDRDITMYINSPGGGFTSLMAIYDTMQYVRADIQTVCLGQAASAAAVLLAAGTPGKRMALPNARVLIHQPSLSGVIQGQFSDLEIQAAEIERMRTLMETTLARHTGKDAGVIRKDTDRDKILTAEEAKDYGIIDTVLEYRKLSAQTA
UniProt I6X8D2, whole entry: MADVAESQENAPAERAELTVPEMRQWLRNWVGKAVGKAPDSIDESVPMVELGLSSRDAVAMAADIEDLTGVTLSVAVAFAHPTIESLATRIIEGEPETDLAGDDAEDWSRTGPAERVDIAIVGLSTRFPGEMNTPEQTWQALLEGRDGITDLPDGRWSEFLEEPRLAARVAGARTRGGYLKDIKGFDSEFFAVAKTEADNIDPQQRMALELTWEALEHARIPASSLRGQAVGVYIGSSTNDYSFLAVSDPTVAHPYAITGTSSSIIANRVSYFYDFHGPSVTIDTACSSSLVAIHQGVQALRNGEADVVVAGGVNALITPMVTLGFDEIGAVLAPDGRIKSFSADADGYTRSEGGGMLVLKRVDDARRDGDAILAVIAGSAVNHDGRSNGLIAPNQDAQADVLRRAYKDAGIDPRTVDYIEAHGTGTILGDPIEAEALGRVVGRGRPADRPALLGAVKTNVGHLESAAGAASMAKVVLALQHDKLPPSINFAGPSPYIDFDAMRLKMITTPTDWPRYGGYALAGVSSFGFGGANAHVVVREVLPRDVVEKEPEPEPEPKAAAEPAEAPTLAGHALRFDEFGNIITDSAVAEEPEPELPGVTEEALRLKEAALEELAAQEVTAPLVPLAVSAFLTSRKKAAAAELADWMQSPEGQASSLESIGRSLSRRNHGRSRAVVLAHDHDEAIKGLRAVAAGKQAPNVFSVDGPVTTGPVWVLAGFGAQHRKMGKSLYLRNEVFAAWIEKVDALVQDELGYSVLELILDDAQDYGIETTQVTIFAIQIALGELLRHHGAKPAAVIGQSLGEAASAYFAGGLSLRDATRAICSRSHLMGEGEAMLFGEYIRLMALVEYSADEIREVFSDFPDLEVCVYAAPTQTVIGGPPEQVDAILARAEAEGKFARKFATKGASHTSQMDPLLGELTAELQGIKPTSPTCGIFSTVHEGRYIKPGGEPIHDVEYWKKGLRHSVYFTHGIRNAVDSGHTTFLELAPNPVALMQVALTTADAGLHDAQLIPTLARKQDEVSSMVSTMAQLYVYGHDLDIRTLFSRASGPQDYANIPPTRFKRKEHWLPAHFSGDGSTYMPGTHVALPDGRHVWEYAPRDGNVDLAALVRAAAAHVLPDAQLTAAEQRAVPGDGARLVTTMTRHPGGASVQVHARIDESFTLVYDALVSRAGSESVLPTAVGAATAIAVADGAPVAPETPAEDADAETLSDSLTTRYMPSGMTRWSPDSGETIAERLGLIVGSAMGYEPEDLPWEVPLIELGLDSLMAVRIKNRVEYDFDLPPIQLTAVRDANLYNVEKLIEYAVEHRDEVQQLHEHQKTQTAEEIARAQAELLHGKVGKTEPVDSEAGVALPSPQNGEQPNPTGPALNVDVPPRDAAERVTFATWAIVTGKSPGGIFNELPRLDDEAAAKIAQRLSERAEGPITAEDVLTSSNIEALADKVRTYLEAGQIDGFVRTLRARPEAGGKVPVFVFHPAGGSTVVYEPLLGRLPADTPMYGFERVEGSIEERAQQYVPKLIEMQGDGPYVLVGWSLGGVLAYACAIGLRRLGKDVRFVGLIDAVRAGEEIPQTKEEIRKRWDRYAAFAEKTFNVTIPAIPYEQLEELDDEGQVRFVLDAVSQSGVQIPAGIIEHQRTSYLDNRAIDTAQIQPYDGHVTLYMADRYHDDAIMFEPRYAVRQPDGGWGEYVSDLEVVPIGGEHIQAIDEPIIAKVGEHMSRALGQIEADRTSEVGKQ
UniProt P9WNZ1, whole entry: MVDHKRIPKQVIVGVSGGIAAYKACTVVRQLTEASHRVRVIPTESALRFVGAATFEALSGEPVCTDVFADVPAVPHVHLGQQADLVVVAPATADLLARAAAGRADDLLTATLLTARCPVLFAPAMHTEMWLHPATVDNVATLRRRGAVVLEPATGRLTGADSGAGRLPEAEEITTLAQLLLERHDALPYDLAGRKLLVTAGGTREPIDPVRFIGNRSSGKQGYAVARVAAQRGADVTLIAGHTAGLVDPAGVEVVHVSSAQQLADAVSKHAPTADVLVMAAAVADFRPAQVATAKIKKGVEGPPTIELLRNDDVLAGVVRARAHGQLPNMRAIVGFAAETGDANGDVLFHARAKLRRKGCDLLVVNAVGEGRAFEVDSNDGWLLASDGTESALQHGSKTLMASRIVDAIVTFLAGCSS
UniProt A4I591, 1-473: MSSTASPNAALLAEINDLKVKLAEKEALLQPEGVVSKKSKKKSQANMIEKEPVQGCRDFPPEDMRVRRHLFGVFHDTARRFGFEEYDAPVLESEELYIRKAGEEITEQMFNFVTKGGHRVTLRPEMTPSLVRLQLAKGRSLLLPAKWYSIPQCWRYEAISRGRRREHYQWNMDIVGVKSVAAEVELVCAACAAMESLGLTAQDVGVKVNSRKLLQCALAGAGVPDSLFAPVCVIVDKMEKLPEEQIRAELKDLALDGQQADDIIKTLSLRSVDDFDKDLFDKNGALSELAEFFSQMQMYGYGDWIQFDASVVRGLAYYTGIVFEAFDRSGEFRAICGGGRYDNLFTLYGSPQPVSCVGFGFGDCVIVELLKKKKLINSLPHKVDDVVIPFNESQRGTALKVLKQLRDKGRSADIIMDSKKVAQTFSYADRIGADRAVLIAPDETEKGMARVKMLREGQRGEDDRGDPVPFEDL
UniProt Q4DA54, 1-478: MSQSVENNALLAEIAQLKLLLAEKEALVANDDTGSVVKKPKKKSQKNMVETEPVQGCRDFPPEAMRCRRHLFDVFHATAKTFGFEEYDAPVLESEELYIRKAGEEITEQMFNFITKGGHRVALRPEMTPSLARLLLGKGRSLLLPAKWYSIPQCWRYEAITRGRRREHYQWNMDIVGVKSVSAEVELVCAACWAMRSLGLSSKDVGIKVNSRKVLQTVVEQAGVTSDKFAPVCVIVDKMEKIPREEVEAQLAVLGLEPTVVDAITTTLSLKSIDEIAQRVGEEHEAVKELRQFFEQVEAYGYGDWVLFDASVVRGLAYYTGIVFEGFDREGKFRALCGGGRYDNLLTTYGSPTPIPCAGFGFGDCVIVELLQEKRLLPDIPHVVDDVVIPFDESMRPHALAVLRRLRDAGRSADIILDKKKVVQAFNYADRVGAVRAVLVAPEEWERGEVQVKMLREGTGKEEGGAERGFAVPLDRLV

Source: ChEMBL document CHEMBL3988442, “University of Dundee, Small-Polar-MMV Screening Library” (2021).

Each number is a percent effect as filed.
The record does not define 0% and 100%; most values in the screen are far below 50% and negative numbers occur (in some assays of this library far below -100).
Compounds were drawn at random from those tested, without regard to their results.

A: 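Protease assay of ClpP1P2, read by the AMC dye that it sets free. Target: ClpP1P2, Mycobacterium tuberculosis (UniProt P9WPC5 and UniProt P9WPC3). Concentration: 50 µM. Higher reads as stronger inhibition, judged from the few compounds that gave an IC50. Most other retested compounds had strongly negative values. Of about 69,000 compounds tested this way, about 10 (0.015%) reached 50% or more in at least one test.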
B: 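Enzyme assay of the thioesterase domain of polyketide synthase 13; the read-out is not stated. Target: Polyketide synthase Pks13, Mycobacterium tuberculosis (UniProt I6X8D2). Compounds at 30 µM. Higher reads as stronger inhibition (inferred from which compounds were picked for retests). Of about 67,000 compounds tested this way, about 300 (0.46%) reached 50% or more in at least one test.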
C: 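Enzyme assay of CoaBC with a phosphate dye (Biomol Green) read at 650 nm. Target: Coenzyme A biosynthesis protein CoaBC, Mycobacterium tuberculosis (UniProt P9WNZ1). Compounds at 30 µM. Higher reads as stronger inhibition, judged from the few compounds that gave an IC50. Most strong results did not repeat in a second test. Size under these conditions: about 67,000 compounds, about 40 of them at 50% or above in at least one test.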
D: 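Enzyme assay of histidyl-tRNA synthetase; the read-out is not stated. Target: Histidine-tRNA ligase, Leishmania infantum (UniProt A4I591). Concentration: 30 µM. The record gives no direction; compounds that gave an IC50 in retests scored well above the rest, so higher reads as stronger inhibition. The assay is labelled LdHisRS but filed under L. infantum. About 69,000 compounds were tested under these conditions; 0.6% (about 410) showed 50% or more at least once.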
E: 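Enzyme assay of histidyl-tRNA synthetase; the read-out is not stated. Target: Histidine-tRNA ligase, Trypanosoma cruzi CL Brener (UniProt Q4DA54). Compounds at 30 µM. Higher reads as stronger inhibition (inferred: compounds with an IC50 in retests scored well above the rest). Of about 69,000 compounds tested this way, about 31 (0.045%) reached 50% or more in at least one test.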

* O=C([C@H]1C[C@@H]2[C@@H](C1)OCCN2CC1CC1)N1CCCC1 | A: -1.333%; C: 1.057%; D: 19.3%; E: 6.452%
* Cn1cc(CN2CCC(F)(F)C3(CCN(c4cccnc4)C3)C2)cn1 (centres unmarked) | A: -8.238%; B: -3.466%; C: 1.449%; D: 2.74%; E: 0%
* COc1c(C2CCCN2C(=O)c2csc(C(C)C)n2)c(C)nn1C (centres unmarked) | A: -2.318%; B: -3.658%; C: 0.9639%; D: 5.479%; E: 1.527%
* O=C(NCCn1cccn1)Nc1cc(C(=O)N2CCOCC2)ccc1Cl | A: -5.409%; B: -35.73%; C: 2%; D: 0%; E: -1.149%
* COCCN1C[C@H]2[C@@H](C1)N(Cc1ccc(C)o1)CC[C@H]2OC | A: 3.502%; B: -3.511%; C: 13.98%; D: 17.14%; E: 0%
* Cn1cnc(C(=O)N2CC3(CCN(S(=O)(=O)c4ccccc4)C3)C2)c1 | A: -4.015%; B: -3.426%; C: 4.303%; D: 20%; E: 3.448%
* O=S1(=O)CCC(n2cc(C3=CCN(CCn4cccc4)CC3)cn2)C1 (centres unmarked) | A: -27.82%; B: -0.9523%; C: 0.7317%; D: 20%; E: 2.597%
* CCc1nnc2n1CCN(C(=O)c1cc(Br)c[nH]1)C2 | A: 8.58%; B: -11.33%; C: 0.241%; D: -331.5%; E: 3.053%
* Cc1ccc(C(C(=O)O)N(C)CCCN2CCOCC2)c(C)c1 (centres unmarked) | A: -4.845%; B: -4.915%; C: -0.6424%; D: 6.667%; E: 5.682%
* Cc1ccc(C(=O)N2CCN(Cc3ccccc3)CC2)n1C | A: -15.18%; B: -23.08%; C: 1.305%; D: 12.07%; E: 3.39%
* Cn1cc(C(=O)N2C[C@@H]3CN(S(C)(=O)=O)CCO[C@@H]3C2)cn1 | A: 1.636%; B: -3.122%; C: 2.195%; D: 7.547%; E: 8.889%
* Cc1ccccc1-c1noc(C2CC(C(C)C)=NO2)n1 (centres unmarked) | A: -10.31%; B: 7.952%; C: -6.46%; D: 15.87%; E: 2.564%
* CCn1nc2c(cc1=O)CN(CC1CCCCO1)CC2 (centres unmarked) | A: -10.4%; B: -30.77%; C: -15.54%; D: 0%; E: 7.368%
* COCCS(=O)(=O)N1CCN(c2cccc(O)c2)CC1 | A: -9.966%; B: -35.59%; C: 1.873%; D: 4.959%; E: 6.122%
* CC(C)c1nc(C2CCCN2Cc2ccccc2C#N)no1 (centres unmarked) | A: -6.47%; B: 2.595%; C: 0.9639%; D: -57.53%; E: 2.29%
* O=C(CC1CC1)N[C@@H]1CN(C(=O)c2ccsc2)C[C@@H]2CCCO[C@@H]21 | A: -2.744%; B: -3.977%; C: 2.475%; D: 0.9009%; E: 3.315%
* CCN1C[C@H]2C3(CCN(C(C)=O)CC3)CC[C@@]2(C(=O)N(C)C)C1 | A: -4.25%; B: -32.78%; C: 1.478%; D: 4%; E: 0%
* c1c2c(nn1CC1CC1)C(CNC1CCOCC1)OCC2 (centres unmarked) | A: 2.018%; B: -17.32%; C: 4.713%; D: 10%; E: 8.046%
* Cc1cnn(C2CCCN(C(=O)CCCNc3ncccn3)C2)c1 (centres unmarked) | A: 10.5%; B: -4.799%; C: 3.203%; D: 11.9%; E: 4.511%
* CCC(=O)N1CCN(C(=O)CCn2cc(Cl)cn2)[C@H]2CS(=O)(=O)C[C@H]21 | A: -6.442%; B: -15.85%; C: 8.874%; D: 14.75%; E: 8.8%
* COCCn1nc(C(=O)N(C)Cc2cccnc2)ccc1=O | A: -1.676%; B: -9.687%; C: 9.532%; D: 9.574%; E: -9.045%
* COc1ccccc1-c1ccc(C(=O)N2C[C@H]3CC[C@@H]2CN(C)C3)cc1 | A: -8.241%; B: -9.941%; C: 5.651%; D: 16.67%; E: 12.94%
* Cc1cnn(CCNCc2csc(-c3ccc(F)cc3)n2)c1 | A: -1.256%; B: -6.635%; C: 1.064%; D: 5.6%; E: 2.662%
* Cc1nc(CN2CC3(CCN(c4ncc(F)cn4)C3)CC2=O)cs1 (centres unmarked) | A: -14.43%; B: 1.098%; C: 2.155%; D: 8.738%; E: 5.435%
* Cc1nccnc1N1CCC2(CCCN(C3CCOCC3)C2=O)C1 (centres unmarked) | A: -5.626%; B: -3.13%; C: -1.505%; D: -5.714%; E: 2.479%
* Cc1ccc(C(C)(O)CNC(=O)NCCc2ccc3c(c2)CCO3)o1 (centres unmarked) | A: 3.064%; B: -5.635%; C: -7.477%; D: 11.5%; E: -0.4425%

Some entries from above, unchanged:

{"compound": "Cc1cnn(CCNCc2csc(-c3ccc(F)cc3)n2)c1", "A": -1.256, "B": -6.635, "C": 1.064, "D": 5.6, "E": 2.662}
{"compound": "O=C([C@H]1C[C@@H]2[C@@H](C1)OCCN2CC1CC1)N1CCCC1", "A": -1.333, "C": 1.057, "D": 19.3, "E": 6.452}